Experimental data: US20080138847A1, “Bcl-2 family member and BH-3 only proteins for use in development of peptidomimetics” (priority 2004, published 2008)
Results are given in words; binding and its absence hold for the method and conditions named. For part of these data: Binding seen in cells or lysates may run through a third protein. Some entries that bind do so weakly or less than the wild type. For part of these data: Where a sequence is shown, tags or fusion partners need not be part of it.

T1: CED-9 (construct not stated) (Caenorhabditis elegans, UniProt P41958 1-251, limits assumed)
T1 construct: Also stands for the worm's own CED-9 in the in vivo rows
T1 sequence (looked up): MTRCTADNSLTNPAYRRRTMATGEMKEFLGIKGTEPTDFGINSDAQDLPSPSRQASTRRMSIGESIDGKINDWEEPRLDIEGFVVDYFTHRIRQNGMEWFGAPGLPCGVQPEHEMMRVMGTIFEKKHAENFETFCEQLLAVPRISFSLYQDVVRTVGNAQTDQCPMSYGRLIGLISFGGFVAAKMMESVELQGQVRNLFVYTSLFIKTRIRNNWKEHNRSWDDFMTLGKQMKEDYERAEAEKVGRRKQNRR

T2: CED-9 (residues 68-237) (Caenorhabditis elegans) (UniProt P41958)
T2 sequence (looked up): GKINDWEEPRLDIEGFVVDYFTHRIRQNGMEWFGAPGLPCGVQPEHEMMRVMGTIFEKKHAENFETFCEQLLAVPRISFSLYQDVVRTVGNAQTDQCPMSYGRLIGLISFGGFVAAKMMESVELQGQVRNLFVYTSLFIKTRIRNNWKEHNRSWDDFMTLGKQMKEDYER


Tests used:
[1] = biological target: T1, CED-9 (construct not stated); assay: GST-mediated pull-down
Excerpt: This example describes the biochemical and functional analysis of EGL-1/CED-9 interactions. To corroborate the structural analysis, mutations on the interface residues of EGL-1 were examined for their potential to weaken or disrupt its binding to CED-9. Various mutant EGL-1 fragments were purified as fusion proteins with glutathione S-transferase (GST) and their interactions with CED-9 were investigated using a GST-mediated pull-down assay. […] Strikingly, substitution of Gly55 by a negatively charged glutamate residue was not sufficient to abolish interaction with CED-9.

[2] = biological target: T1, CED-9 (construct not stated); assay: GST-mediated pull-down, as retold with the displacement assay
[3] = biological target: T2, CED-9 (residues 68-237) (Caenorhabditis elegans); assay: binding tests of CED-9 fragments with EGL-1

| binding [1] | binding [2] | binding [3] | Binder |
| --- | --- | --- | --- |
| binds | binds | – | SEISSIGYEIGSKAAAMCDDFDAQMMSYSAHASDRSLFHRLLD (peptide, UniProt O61667 60-102, looked up, not shown: a dimerising Fc or GST) [GST-EGL-1 fragment L58A] |
| – | – | binds | EGL-1 (construct not stated) (protein, Caenorhabditis elegans, UniProt O61667 16-106, looked up) MSNVFDVQSSVFYNEKNMFYSSSQDFSSCEDSSQFADDSGFFDDSEISSIGYEIGSKLAAMCDDFDAQMMSYSAHASDRSLFHRLLDFFAF |
